Results are given in words; binding and its absence hold for the method and conditions named. Binding seen in cells or lysates may run through a third protein. Some entries that bind do so weakly or less than the wild type.
Assays:
[1] = target: T1, ATG9A in HEK293T cells (human (endogenous in HEK293T)) (UniProt Q7Z3C6); assay: co-IP; HEK293T cells transfected with a series of HA-tagged NMMHC IIA fragment plasmids; western blot
T1 sequence: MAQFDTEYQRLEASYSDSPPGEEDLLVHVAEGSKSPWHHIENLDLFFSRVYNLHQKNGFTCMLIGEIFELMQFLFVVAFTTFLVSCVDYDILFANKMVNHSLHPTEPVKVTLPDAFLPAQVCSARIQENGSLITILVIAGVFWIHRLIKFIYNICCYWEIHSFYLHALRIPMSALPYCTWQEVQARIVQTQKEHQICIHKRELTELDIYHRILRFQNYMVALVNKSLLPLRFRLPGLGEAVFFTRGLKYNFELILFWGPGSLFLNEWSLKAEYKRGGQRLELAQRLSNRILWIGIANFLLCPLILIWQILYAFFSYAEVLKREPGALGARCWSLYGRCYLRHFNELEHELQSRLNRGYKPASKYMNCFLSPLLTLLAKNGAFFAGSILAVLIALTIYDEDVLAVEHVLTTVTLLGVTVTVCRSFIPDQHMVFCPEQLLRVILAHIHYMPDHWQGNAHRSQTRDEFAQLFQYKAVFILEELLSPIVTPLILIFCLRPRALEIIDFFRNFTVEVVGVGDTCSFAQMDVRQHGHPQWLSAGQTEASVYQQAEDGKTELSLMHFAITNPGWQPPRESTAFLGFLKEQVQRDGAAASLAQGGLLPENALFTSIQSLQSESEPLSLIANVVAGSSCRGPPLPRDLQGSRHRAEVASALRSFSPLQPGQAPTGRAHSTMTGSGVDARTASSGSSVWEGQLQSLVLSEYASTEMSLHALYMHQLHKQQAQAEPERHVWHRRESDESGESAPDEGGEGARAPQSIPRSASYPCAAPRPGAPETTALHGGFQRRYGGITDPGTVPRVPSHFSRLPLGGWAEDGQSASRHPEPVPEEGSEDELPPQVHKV

By UniProt entry, the sequences of proteins in these tests, tags left out. Residues count along the entry.
UniProt P35579, residues 842-1921: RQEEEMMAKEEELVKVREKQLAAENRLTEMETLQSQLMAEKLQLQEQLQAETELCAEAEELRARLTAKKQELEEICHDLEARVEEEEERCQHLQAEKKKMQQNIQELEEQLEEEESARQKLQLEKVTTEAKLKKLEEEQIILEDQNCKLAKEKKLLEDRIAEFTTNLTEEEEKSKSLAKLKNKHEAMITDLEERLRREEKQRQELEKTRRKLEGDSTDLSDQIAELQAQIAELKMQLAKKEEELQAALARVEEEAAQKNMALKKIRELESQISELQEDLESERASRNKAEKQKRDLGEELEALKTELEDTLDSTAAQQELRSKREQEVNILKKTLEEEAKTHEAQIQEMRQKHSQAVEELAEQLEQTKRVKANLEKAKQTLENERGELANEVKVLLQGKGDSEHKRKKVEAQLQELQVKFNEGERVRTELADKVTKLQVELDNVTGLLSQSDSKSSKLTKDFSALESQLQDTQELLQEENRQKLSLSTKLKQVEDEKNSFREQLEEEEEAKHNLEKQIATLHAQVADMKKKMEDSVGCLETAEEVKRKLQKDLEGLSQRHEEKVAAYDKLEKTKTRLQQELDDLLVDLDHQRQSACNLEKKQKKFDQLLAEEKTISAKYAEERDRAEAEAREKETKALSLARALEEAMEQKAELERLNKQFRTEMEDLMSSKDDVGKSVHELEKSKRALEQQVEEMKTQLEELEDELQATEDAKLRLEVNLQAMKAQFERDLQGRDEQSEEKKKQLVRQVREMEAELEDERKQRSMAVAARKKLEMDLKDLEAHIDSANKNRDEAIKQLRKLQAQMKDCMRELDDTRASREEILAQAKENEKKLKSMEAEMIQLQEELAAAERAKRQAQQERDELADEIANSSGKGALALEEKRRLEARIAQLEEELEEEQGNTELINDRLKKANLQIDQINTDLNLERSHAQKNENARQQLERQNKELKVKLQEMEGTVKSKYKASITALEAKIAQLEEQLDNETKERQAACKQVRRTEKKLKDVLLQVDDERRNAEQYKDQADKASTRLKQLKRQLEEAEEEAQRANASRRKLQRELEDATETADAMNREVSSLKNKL
UniProt Q62812: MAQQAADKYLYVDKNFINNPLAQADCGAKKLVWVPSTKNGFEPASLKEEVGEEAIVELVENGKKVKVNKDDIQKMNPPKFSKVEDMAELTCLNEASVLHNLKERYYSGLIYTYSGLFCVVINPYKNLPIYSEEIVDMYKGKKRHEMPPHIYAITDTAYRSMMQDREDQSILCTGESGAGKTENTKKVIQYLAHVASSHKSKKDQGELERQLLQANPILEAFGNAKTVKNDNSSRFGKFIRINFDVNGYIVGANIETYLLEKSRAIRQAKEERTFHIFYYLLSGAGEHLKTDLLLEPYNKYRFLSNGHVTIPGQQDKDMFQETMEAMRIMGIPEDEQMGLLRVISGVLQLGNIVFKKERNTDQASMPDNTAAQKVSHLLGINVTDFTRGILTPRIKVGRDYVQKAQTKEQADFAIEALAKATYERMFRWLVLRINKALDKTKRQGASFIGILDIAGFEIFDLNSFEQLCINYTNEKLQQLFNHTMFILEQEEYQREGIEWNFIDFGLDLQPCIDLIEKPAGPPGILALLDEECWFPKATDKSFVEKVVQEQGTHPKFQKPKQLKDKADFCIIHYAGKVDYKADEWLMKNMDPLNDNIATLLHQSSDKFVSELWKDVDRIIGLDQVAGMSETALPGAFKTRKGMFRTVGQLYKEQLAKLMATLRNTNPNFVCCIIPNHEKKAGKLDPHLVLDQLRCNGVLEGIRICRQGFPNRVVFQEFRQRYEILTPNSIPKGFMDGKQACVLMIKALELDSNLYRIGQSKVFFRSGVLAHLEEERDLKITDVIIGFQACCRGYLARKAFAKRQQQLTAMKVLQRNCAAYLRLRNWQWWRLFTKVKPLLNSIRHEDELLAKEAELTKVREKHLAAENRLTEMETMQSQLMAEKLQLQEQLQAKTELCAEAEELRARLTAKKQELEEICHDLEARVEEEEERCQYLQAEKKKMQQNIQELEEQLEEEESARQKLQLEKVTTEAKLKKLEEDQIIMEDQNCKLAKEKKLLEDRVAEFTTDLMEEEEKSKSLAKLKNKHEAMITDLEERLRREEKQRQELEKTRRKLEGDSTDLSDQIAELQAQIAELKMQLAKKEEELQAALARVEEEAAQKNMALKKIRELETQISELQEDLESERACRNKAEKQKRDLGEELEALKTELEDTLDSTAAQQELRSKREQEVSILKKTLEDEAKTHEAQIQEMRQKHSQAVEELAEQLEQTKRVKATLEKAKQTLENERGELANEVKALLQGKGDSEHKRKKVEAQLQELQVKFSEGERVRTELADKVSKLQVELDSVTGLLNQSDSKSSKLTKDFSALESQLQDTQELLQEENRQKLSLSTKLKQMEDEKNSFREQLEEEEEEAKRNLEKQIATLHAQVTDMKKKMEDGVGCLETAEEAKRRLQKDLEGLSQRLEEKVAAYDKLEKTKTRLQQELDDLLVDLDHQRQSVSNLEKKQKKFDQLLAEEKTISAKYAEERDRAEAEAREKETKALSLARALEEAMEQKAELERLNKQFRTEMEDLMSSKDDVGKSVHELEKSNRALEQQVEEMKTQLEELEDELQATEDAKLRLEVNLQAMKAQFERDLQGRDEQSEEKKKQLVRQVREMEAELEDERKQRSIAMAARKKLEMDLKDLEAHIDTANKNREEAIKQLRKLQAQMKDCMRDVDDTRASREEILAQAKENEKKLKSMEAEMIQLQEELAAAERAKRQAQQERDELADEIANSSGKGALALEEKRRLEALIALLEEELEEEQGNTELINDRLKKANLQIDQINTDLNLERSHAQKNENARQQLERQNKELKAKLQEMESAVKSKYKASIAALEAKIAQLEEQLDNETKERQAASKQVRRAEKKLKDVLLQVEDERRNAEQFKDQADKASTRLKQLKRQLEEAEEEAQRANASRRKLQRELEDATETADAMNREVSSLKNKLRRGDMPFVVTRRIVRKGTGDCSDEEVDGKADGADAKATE

[2] = target: T2, autophagy-related gene 9A (ATG9A), endogenous in PC12 cells (rat (endogenous in PC12)) (UniProt Q5FWU3); assay: proximity ligation; Duolink PLA kit (Sigma-Aldrich) in PC12 cells, primary antibodies to ATG9A and NMMHC IIA; control and OGD/R
T2 sequence: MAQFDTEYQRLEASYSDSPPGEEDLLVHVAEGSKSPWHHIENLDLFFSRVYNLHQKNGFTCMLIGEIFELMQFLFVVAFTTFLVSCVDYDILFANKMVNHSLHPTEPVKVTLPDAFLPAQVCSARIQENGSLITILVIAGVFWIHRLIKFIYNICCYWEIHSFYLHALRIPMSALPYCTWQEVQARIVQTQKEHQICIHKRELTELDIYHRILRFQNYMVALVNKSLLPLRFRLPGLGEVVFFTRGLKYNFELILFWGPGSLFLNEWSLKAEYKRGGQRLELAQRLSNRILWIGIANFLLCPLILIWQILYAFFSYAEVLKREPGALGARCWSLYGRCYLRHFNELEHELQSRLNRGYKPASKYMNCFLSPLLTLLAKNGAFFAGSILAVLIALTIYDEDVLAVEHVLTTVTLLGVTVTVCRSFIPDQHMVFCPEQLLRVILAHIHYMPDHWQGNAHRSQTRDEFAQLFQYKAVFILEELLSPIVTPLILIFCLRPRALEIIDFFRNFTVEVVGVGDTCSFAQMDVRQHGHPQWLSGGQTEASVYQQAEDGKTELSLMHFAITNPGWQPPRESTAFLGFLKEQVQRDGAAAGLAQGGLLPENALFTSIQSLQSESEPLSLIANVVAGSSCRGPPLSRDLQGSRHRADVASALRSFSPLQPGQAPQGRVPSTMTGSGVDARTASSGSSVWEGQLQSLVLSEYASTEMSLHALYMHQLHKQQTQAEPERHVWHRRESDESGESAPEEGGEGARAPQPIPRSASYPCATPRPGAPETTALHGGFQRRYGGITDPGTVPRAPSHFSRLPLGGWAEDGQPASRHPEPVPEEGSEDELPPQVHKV

[3] = target: T2, autophagy-related gene 9A (ATG9A), endogenous in PC12 cells (rat (endogenous in PC12)); assay: co-IP; PC12 whole-cell lysate (1 ug/uL, RIPA buffer) on antibody bound to Protein A/G PLUS-Agarose, 6 h at 4 °C, washed with RIPA, western blot; cells control or OGD 6 h / reoxygenation 6 h, with or without blebbistatin or cytochalasin D (1 uM); wild-type and NMMHC IIA knockout cells

Row | Substance | binding [1] | binding [2] | binding [3]
1 | HA-tagged NMMHC IIA tail domain (aa. 842-1921) (from UniProt P35579 842-1921) (domain or fragment) | binds |  | 
2 | non-muscle myosin heavy-chain IIA (NMMHC IIA), endogenous in PC12 cells (from UniProt Q62812 1-1961) |  | binds | binds

Source: paper PMC7280511
